From US20110207796A1, “ALPHA-SYNUCLEIN KINASE” (Elan Pharma International Limited, priority 2008, published 2011)

How the values were obtained:
[1] = tested on: synuclein phosphorylation (serine-129); experiment: inhibition of synuclein phosphorylation across the cellular paradigms (primary neuronal cultures and 293 cells); format: cell-based, mouse, rat and human; conditions: cell types tested
[2] = tested on: endogenous kinase (synuclein phosphorylation); experiment: HEK-293 cells overexpressing synuclein with empty vector, inhibition of synuclein phosphorylation; format: cell-based, human
Protocol: All vectors had the sequence coding for the protein of interest. Transfection was accomplished using Lipofectamine 2000 (Invitrogen, Carlsbad, Calif.) with 0.08 μg vector. Cells were washed and harvested 48 hours post-transfection. A Micro BCA (Pierce) total protein assay and total synuclein and phospho-synuclein ELISAs were performed on each plate of treated cells.

CO[C@@H]1[C@H](N(C)C(=O)c2ccccc2)C[C@H]2O[C@]1(C)n1c3ccccc3c3c4c(c5c6ccccc6n2c5c31)C(=O)NC4 [N-benzoyl staurosporine]
inhibition of 50% of synuclein phosphorylation in cells [1]: did not inhibit 50% | EC50 [2]: > 100 µM
